Not every detail of the peptide structures is certain; ends, links or a residue may be inferred. Numbered stars: 1 amine (or outer) side, 2 acyl side, 3 side chain; on linkers, the order of the positions; unused ones are H or OH. Square brackets hold non-standard residues; d marks the D form. Side chains are listed from the residue outwards. Peptide text beside a SMILES is read from it. * marks the point of attachment. X1 = CCCCCCCCCCCCCCCC(=O)N[C@@H](CCC(=O)N[C@@H](CCC(=O)N[C@@H](CCC(=O)NCCCOCCOCCOCCCNC(=O)CCC(=O)NCCCOCCOCCOCCCNC(=O)CCC(=O)NCCCOCCOCCOCCCN*)C(=O)O)C(=O)O)C(=O)O; Suc = O=C(CCC(=O)[*:2])[*:1]; αMeK = C[C@](N)(CCCCN)C(=O)O; Aib = CC(C)(N)C(=O)O
Experiment: Renal plasma flow by para-aminohippurate (PAH) clearance, MAD part B
Format: in vivo, human
Conditions: after multiple dosing

CCCCCCCCCCCCCCCC(=O)N[C@@H](CCC(=O)N[C@@H](CCC(=O)N[C@@H](CCC(=O)NCCCOCCOCCOCCCNC(=O)CCC(=O)NCCCOCCOCCOCCCNC(=O)CCC(=O)NCCCOCCOCCOCCCNC(=O)CCC(=O)NCCCC[C@H](NC(=O)CNC(=O)[C@H](CCC(=O)O)NC(=O)C(C)(C)NC(=O)C(C)(C)NC(=O)[C@@H](NC(=O)[C@H](CCCCNC(C)=O)NC(=O)[C@H](C)NC(=O)[C@H](CCCNC(=N)N)NC(=O)[C@@H](NC(=O)[C@H](CCCCN)NC(=O)[C@H](CCC(=O)O)NC(=O)[C@H](CCCNC(=N)N)NC(=O)CNC(=O)[C@H](CCC(=O)O)NC(=O)[C@H](CC(C)C)NC(C)=O)C(C)C)[C@@H](C)CC)C(=O)N[C@@H](CO)C(=O)N[C@H](C(=O)N[C@@H](Cc1ccccc1)C(=O)N[C@@H](CO)C(=O)N[C@@](C)(CCCCN)C(=O)N[C@@H](CCCNC(=N)N)C(=O)N[C@@H](C)C(=O)N[C@@H](CCCCNC(C)=O)C(N)=O)[C@@H](C)O)C(=O)O)C(=O)O)C(=O)O [SEQ ID NO: 3, Ac-L-E-G-R-E-K-V-R-A-K(Ac)-I-Aib-Aib-E-G-K(TTDS-TTDS-TTDS-gE-gE-gE-Palm)-S--T-F-S-Mly-R-A-K(Ac)-NH2] (Ac-LEGREKVRAK(Ac)I[Aib][Aib]EGK([Suc-X1])STFS[αMeK]RAK(Ac)-NH2)
RPF assessed using the PAH biomarker, active dose groups compared to placebo: tended to be increased | effective RPF (eRPF), active dose groups compared to the placebo group (no clear relationship with dose): higher
